In paper PMC7475243:
Results are given in words; binding and its absence hold for the method and conditions named. Binding seen in cells or lysates may run through a third protein. Some results given as binding are weak or reduced against the parent protein; the word gives no strength. Tags and fused reporters may be left off the sequences shown.

Molecular target: OsLecRK5 (rice lectin receptor-like kinase), BiFC fusion (rice (Oryza sativa))
Assay: split reporter; BiFC with Yn (YFP 1-158) and Yc (YFP 155-239) fusions transiently expressed in Nicotiana benthamiana (tobacco) leaf mesophyll cells; fluorescence microscopy

binding: binds
B1: OsLecRK5 (rice lectin receptor-like kinase), BiFC fusion (receptor, UniProt A0A0P0VIP0 24-695)
chain: AAASSIAAAPASSYRRISWASNLTLLGSASLLPGAAGVALTTPSRDGVGAGRALFSEPVRLLLPQDAAASASASRAATPASFSTRFTFRITPSPTYGDGLAFLLTSSRTFLGASNGFLGLFPSSSASDEGELRDVSTVAVEIDTHLDVALHDPDGNHVALDAGSIFSVASAQPGVDLKAGVPITAWVEYRAPRRRLNVWLSYSPSRRPEKPALSADVDLSGLLRTYMYAGFSASNGNGAALHVVERWTFRTFGFPNSSYAPPPTKYIGPMPPNNQPLPPPPSPSPSPPPPSPPPPPHPNHRRRHLFYKVLGGVLGGMVLLGLVVVGSAVLLGRSVRRKNQEHAVASEDMGEATLSMEVARAATKGFDSGNVIGVGGSGATVYEGVLPSGSRVAVKRFQAIGSCTKAFDSELKAMLNCPHHPNLVPLAGWCRSKDELVLVYEFMPNGNLDSALHTLGGATLPWEARFRAVYGVASALAYLHDECENRIIHRDVKSSNVMLDAEFNARLGDFGLARTVSHGGLPLTTQPAGTLGYLAPEYVHTGVATERSDVYSFGVLALEVATGRRPAERGISVVNWVWTLWGRRRLVDAADRRLQGRFVADEMRRVLLVGLCCVHPDCRKRPGMRRVVSMLDGTAPLILVPDKMPPVLLQPVPNASSMNSADTANTAFFSCR
